# In paper PMC3654991:
# B1: recombinant His-TbPRMT1 (enzyme, UniProt Q4GYA9 1-345)
# chain: MTVDANAASSTTTTTDYYFDSYSHYGIHMEMLKDCHRTTSYRDAMWRNAYLFKDKVVLDVGCGTGILSMFAAKAGARKVIGVDCSTVAVQAREIVRDNGFEDVITIIQGKVEEIQLDEKVDIIISEWMGYFLLYESMLNTVLYARDNLGTPDVKMFPDKANMHVCGITDEQYIQERFNIWDNVQGIDFSYFKRLSFIEPLVDTVERSQIVTNVAPLVSFDINTVKEADLSFTSEFALEAQASRGKRNGGNSIIYVHALSVHFDTPFTAGHEVVILDTTPYSPPTHWRQTVLYLFNPLRMRAGERATFRMKCSPNALNGRDLDISLHVDFEGALQISHYDQDFRLR
# Assays:
# [1] = biological target: recombinant His-TbLpn (T. brucei); assay: far-Western, overlay or dot blot; His-tagged proteins run on denaturing 10% SDS-PAGE, transferred to PVDF; membrane incubated with 0.5-1.0 μg purified TbPRMT1 in TBS-T with 2% nonfat dry milk overnight at 4°C; detected with anti-TbPRMT1 polyclonal antibodies; both purified
# [2] = biological target: recombinant His-RBP16 (T. brucei); assay: as above
binder,measurement,setting,value
B1,binding,[1],binds
same,binding,[2],no binding (tested: 0.5-1.0 μg of purified TbPRMT1)

# Results are given in words; binding and its absence hold for the method and conditions named. For some assays here: Binding can be weak; no strength is given. Where a sequence is shown, tags or fusion partners need not be part of it.
